The source of these data is paper PMC6342326.

Results are given in words; binding and its absence hold for the method and conditions named. Binding seen in cells or lysates may run through a third protein. Binding can be weak; no strength is given. Tags and fused reporters may be left off the sequences shown.

Test [1] has as its target T1, AtVps34-Flag (Arabidopsis) (UniProt P42339).
T1 sequence: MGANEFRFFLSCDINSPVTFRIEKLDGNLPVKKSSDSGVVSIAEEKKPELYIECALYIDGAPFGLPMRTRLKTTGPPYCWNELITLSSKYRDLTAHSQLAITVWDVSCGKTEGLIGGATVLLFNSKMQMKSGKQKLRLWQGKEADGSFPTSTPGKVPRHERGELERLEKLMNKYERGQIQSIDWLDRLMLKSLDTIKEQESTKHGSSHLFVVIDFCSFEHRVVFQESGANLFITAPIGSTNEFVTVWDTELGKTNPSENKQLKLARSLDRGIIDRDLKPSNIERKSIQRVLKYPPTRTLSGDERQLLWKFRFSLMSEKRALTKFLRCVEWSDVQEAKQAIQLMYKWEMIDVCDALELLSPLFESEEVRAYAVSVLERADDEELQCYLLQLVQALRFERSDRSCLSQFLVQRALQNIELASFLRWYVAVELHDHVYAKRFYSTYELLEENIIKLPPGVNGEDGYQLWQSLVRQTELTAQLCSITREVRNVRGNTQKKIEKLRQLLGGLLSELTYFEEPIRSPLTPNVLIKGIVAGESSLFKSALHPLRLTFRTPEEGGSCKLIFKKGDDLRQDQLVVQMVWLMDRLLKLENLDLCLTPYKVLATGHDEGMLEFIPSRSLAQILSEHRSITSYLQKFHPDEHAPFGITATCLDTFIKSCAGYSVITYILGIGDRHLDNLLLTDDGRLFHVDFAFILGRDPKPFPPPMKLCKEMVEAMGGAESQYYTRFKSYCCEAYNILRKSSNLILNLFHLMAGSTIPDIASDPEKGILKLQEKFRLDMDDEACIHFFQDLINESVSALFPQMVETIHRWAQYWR
Kind of test: co-IP; Flag-affinity purification of AtVps34-Flag from the detergent-solubilized membrane fraction of N. benthamiana leaves infected with TBSV; p33 detected by Western blot with anti-p33 antibody. A general note: A western blot detects proteins with antibodies after separation by electrophoresis.

The target in test [2] is MBP-tagged TBSV p33 replication protein (Tomato bushy stunt virus (TBSV)). Kind of test: pull-down; MBP-affinity purified MBP-p33 (from E. coli) captures 2xFlag-Vps34p from the soluble fraction of yeast CFE; anti-Flag Western blot; only the target purified.
Test [3] has as its target Flag-p33 (TBSV replication protein) (Tomato bushy stunt virus (TBSV)). Kind of test: co-IP; Flag-affinity purification of Flag-p33 from subcellular membranes of yeast, including yeast lacking the VPS34 gene; Vps21 detected with anti-His antibody.

In the case of “TBSV p33 replication protein (from TBSV infection) (Tomato bushy stunt virus (TBSV))”, the binding result in test [1] is “binds”.

B1: 2xFlag-tagged yeast Vps34 N736K (inactive mutant) (enzyme, UniProt P22543 1-875)
chain: MSLNNITFCVSQDLDVPLKVKIKSLEGHKPLLKPSQKILNPELMLIGSNVFPSSDLIVSLQVFDKERNRNLTLPIYTPYIPFRNSRTWDYWLTLPIRIKQLTFSSHLRIILWEYNGSKQIPFFNLETSIFNLKDCTLKRGFESLKFRYDVIDHCEVVTDNKDQENLNKYFQGEFTRLPWLDEITISKLRKQRENRTWPQGTFVLNLEFPMLELPVVFIEREIMNTQMNIPTLKNNPGLSTDLREPNRNDPQIKISLGDKYHSTLKFYDPDQPNNDPIEEKYRRLERASKNANLDKQVKPDIKKRDYLNKIINYPPGTKLTAHEKGSIWKYRYYLMNNKKALTKLLQSTNLREESERVEVLELMDSWAEIDIDDALELLGSTFKNLSVRSYAVNRLKKASDKELELYLLQLVEAVCFENLSTFSDKSNSEFTIVDAVSSQKLSGDSMLLSTSHANQKLLKSISSESETSGTESLPIVISPLAEFLIRRALVNPRLGSFFYWYLKSESEDKPYLDQILSSFWSRLDKKSRNILNDQVRLINVLRECCETIKRLKDTTAKKMELLVHLLETKVRPLVKVRPIALPLDPDVLICDVCPETSKVFKSSLSPLKITFKTTLNQPYHLMFKVGDDLRQDQLVVQIISLMNELLKNENVDLKLTPYKILATGPQEGAIEFIPNDTLASILSKYHGILGYLKLHYPDENATLGVQGWVLDNFVKSCAGYCVITYILGVGDRHLDKLLVTPDGHFFHADFGYILGQDPKPFPPLMKLPPQIIEAFGGAESSNYDKFRSYCFVAYSILRRNAGLILNLFELMKTSNIPDIRIDPNGAILRVRERFNLNMSEEDATVHFQNLINDSVNALLPIVIDHLHNLAQYWRT
Regarding B1, the binding result in test [2] is recorded as “binds”.

B2: 6xHis-tagged Vps21 (Rab5 ortholog) (protein, UniProt P36017 1-210)
chain: MNTSVTSIKLVLLGEAAVGKSSIVLRFVSNDFAENKEPTIGAAFLTQRVTINEHTVKFEIWDTAGQERFASLAPMYYRNAQAALVVYDVTKPQSFIKARHWVKELHEQASKDIIIALVGNKIDMLQEGGERKVAREEGEKLAEEKGLLFFETSAKTGENVNDVFLGIGEKIPLKTAEEQNSASNERESNNQRVDLNAANDGTSANSACSC
Regarding B2, the binding entry in test [3] is recorded as “binds”.
